Reference: publication doi:10.1101/2024.02.14.580405
Results are given in words; binding and its absence hold for the method and conditions named. Binding seen in cells or lysates may run through a third protein. Some binding calls cover weakened binding; strength is not graded here.

What was measured:
[1] = target: T1, dopamine D4 receptor (D4R) (mouse (endogenous in mouse kidney and mouse DCT cells)) (UniProt P51436); experiment: FRET or BRET
T1 sequence: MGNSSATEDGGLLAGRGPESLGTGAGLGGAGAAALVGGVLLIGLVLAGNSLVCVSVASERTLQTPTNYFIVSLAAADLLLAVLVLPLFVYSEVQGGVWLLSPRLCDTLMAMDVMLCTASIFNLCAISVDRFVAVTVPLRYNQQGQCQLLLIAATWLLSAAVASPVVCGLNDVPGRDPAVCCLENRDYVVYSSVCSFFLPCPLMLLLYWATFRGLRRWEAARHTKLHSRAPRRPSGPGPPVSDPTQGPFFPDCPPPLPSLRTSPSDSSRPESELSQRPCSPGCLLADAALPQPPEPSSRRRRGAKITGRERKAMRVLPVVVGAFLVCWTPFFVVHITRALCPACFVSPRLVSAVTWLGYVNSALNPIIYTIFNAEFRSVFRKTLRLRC

[2] = target: T1, dopamine D4 receptor (D4R) (mouse (endogenous in mouse kidney and mouse DCT cells)); experiment: co-IP
[3] = target: T2, ubiquitin-specific-protease 48 (USP48) (mouse (endogenous in mouse kidney)) (UniProt Q3V0C5); experiment: co-IP
T2 sequence: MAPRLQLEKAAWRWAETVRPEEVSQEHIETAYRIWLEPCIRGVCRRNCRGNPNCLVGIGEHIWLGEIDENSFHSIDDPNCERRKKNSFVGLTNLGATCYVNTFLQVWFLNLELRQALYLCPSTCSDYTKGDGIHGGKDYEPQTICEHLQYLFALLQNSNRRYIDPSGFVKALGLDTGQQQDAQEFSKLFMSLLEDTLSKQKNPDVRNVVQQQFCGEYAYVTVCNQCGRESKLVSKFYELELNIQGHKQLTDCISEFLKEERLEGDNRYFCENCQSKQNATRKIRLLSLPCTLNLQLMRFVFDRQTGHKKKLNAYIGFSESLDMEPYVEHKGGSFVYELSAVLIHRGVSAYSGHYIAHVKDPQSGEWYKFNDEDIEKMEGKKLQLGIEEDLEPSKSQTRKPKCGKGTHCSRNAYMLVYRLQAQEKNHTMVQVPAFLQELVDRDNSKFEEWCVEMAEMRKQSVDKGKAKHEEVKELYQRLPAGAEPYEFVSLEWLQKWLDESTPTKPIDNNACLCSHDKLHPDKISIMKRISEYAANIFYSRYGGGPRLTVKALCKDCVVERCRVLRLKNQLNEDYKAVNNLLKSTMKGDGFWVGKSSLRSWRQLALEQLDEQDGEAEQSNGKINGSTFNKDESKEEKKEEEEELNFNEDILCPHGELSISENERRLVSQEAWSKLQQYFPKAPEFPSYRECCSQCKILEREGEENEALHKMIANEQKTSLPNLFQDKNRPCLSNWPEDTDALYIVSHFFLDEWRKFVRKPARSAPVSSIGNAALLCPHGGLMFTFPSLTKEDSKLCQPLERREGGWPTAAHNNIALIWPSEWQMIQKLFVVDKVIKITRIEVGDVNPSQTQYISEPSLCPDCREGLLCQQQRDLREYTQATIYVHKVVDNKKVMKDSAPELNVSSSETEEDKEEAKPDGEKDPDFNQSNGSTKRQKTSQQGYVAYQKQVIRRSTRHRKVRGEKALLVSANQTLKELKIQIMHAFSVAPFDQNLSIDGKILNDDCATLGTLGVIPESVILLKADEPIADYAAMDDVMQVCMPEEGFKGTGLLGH

[4] = target: T1, dopamine D4 receptor (D4R) (mouse (endogenous in mouse kidney and mouse DCT cells)); experiment: co-IP; remark: listed apart in the source

Measured: binding

B1: thiazide-sensitive sodium chloride cotransporter (NCC) (protein, UniProt P59158 1-1002)
chain: MAELPVTELPGDALCSGRFTISTLMGGDEPPPAACDSSQPSHLTHGSTLYMRTFGYNTIDVVPAYEHYANSALPGEPRKVRPTLADLHSFLKQEGSHLHALAFDGRQGRELTDGLVEDETGTNSEKSPGEPVRFGWVKGVMIRCMLNIWGVILYLRLPWITAQAGIVLTWLIILLSVMVTSITGLSISAISTNGKVKSGGTYFLISRSLGPELGGSIGLIFAFANAVGVAMHTVGFAETVRDLLQEYGTPIVDPINDIRIIGVVTVTVLLAISLAGMEWESKAQVLFFLVIMVSFANYLVGTLIPASEDKASKGFYSYHGDIFVQNLVPDWRGIDGSFFGMFSIFFPSATGILAGANISGDLKDPAVAIPKGTLMAIFWTTISYLAISATIGSCVVRDASGDVNDTMTPGPGPCEGLACGYGWNFTECSQQRSCRYGLINYYQTMSMVSAFAPLITAGIFGATLSSALACLVSAAKVFQCLCEDQLYPLIGFFGKGYGKNREPVRGYLLAYAIAVAFIIIAELNTIAPIISNFFLCSYALINFSCFHASITNSPGWRPSFRYYSKWAALFGAVISVVIMFLLTWWAALIAIGVVLFLLLYVIYKKPEVNWGSSVQAGSYNLALSYSVGLNEVEDHIKNYRPQCLVLTGPPNFRPALVDFVSTFTQNLSLMICGHVLIGPGKQRVPELRLIASGHTKWLNKRKIKAFYSDVIAEDLRSGVQILMQASGLGRMKPNILVVGFKRNWQSAHPATVEDYIGVLHDAFDFNYGVCVMRMREGLNVSEALQTHTTPEALIQEEQASTIFQSEQGKKTIDIYWLFDDGGLTLLIPYLLHRKKRWGKCKIRVFVGGQINRMDEERKAIISLLSKFRLGFHEVHVLPDINQKPQAEHTKRFEDMIAPFRLNDGFKDEATVTEMRRDCPWKISDEEINKNRIKSLRQVRLSEILLDYSRDAALIILTLPIGRKGKCPSSLYMAWLETLSQDLRPPVLLIRGNQENVLTFYCQ
binds: [1] | [2] | [3] | [4]
